# The list shows a part of the results. The main result of the screen is listed elsewhere. These columns were measured beside it and carry no call. Compounds called inactive in the main read-out are mostly missing here. Words in brackets tell the shape of the fitted curve; partial curves, single points and poor fits give uncertain potencies.
# Test: qHTS Assay to Find Inhibitors of Chronic Active B-Cell Receptor Signaling
# Conditions: ABC-DLBCL IkBa-CBG/CBR reporter, luminescence ratio (green luciferase fused to IkBa over red control in TMD8 lymphoma cells), 4 h
# Outline: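 TMD8 human ABC-DLBCL cells with doxycycline-inducible IκBα–green luciferase fusion and unfused red luciferase, in 0.5% FBS medium; compounds up to 46 uM, 4 h at 37C. Green/red luminescence ratio, filter-overlap corrected, fitted to concentration-response curves.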
# [1] = measured here: CBR red luminescence, cell number
smiles,measurement,setting,value
CCc1ccc2nc(N3C(=O)C(O)=C(C(=O)c4ccco4)C3c3cccs3)sc2c1 (configuration not stated),AC50,[1],"14.6 µM [falling, partial curve, poor fit]"
CCOc1ccc(NC(=O)c2cc(C3CC3)nc3c2cnn3C(C)C)cc1OC,AC50,[1],"1.16 µM [rising, full curve]"
Brc1ccc(-c2cnc(-c3cccs3)o2)cc1,AC50,[1],"0.562 µM [rising, full curve]"
Cc1nc2cc(-c3cccc(F)c3)nn2c(C)c1CCC(=O)NC(C)CCc1ccco1 (configuration not stated),AC50,[1],"0.326 µM [falling, full curve]"
COC(=O)COc1ccc(/C=N/NC(=O)c2ccc(N(Cc3ccccc3)S(C)(=O)=O)cc2)cc1,AC50,[1],"29.1 µM [falling, single point]"
O=C(NC(=S)N(CCO)Cc1ccccc1)c1cc(Br)ccc1Cl,AC50,[1],"22.4 µM [rising, single point]"
same,AC50,measured here: IkBa-CBG green luminescence,"28.2 µM [falling, single point]"
CC(=O)c1cc(-c2ccccc2)[nH]c1N1CCCC1,AC50,[1],"25.9 µM [falling, single point]"
O=C(c1ccc(Br)cc1)N1CCN(S(=O)(=O)c2ccccc2)CC1,AC50,[1],"11.6 µM [falling, partial curve, poor fit]"
CC(=O)Nc1ccc(NS(=O)(=O)c2c(Cl)cccc2Cl)cc1,AC50,[1],"0.316 µM [rising, full curve, poor fit]"
CCCCCCCCCn1ccc(=N)cc1,AC50,[1],"11.2 µM [falling, partial curve]"
CC(OC(=O)Cn1cc(C(F)(F)F)ccc1=O)C(=O)NC(C)c1ccc(Cl)cc1Cl (configuration not stated),AC50,[1],"2.31 µM [falling, single point]"
O=C(CCN1C(=O)/C(=C/c2ccc(Cl)cc2)SC1=S)NC1C=CS(=O)(=O)C1 (configuration not stated),AC50,[1],"8.91 µM [falling, partial curve]"
COc1ccc(F)cc1C(=O)C1CCCN(C(=O)CSc2ccccn2)C1 (configuration not stated),AC50,[1],"5.62 µM [rising, single point]"
O=C(NC1CCc2ccccc21)c1cc(COc2ccc(F)cc2Cl)on1 (configuration not stated),AC50,[1],"14.1 µM [falling, single point]"
Cn1cc(CN2CCC(CO)CC2)c(-c2ccc(Oc3ccccc3)cc2)n1,AC50,[1],"5.62 µM [rising, full curve]"
O=C(Cc1ccccc1)NCC(=O)N/N=C/c1ccc([N+](=O)[O-])s1,AC50,[1],"35.5 µM [falling, single point]"
COc1ccccc1OC(C)C(=O)Nc1nc(-c2ccc(S(=O)(=O)N3CCOCC3)cc2)cs1 (configuration not stated),AC50,[1],"5.62 µM [rising, full curve]"
CN(Cc1ccccc1)C(=O)c1[nH]cnc1C(=O)NCc1ccccc1,AC50,[1],"16.4 µM [falling, single point]"
COc1ccccc1NS(=O)(=O)c1cc(NC(=O)c2cc3ccccc3oc2=O)ccc1C,AC50,[1],"0.082 µM [falling, full curve, poor fit]"
O=C(Cc1csc(NC(=O)c2ccc(F)cc2)n1)NO,AC50,[1],"35.5 µM [falling, single point]"
COc1cccc(C2=CC(c3ccccc3F)n3c(nc4ccccc43)N2)c1 (configuration not stated),AC50,[1],"12.6 µM [falling, partial curve]"
O=C(c1cc(COc2ccc(F)cc2Cl)on1)N1CCc2ccccc2C1,AC50,[1],"14.1 µM [rising, partial curve]"
COc1ccc(-c2nnc(-c3ccc(F)cc3)o2)cc1,AC50,[1],"0.562 µM [rising, full curve, poor fit]"
Cc1onc(C(=O)/C=C/N(C)C)c1C(=O)Nc1nccs1,AC50,[1],"6.31 µM [falling, partial curve, poor fit]"
COc1ccc2oc(C(=O)Nc3nc4ccccc4[nH]3)c(C)c2c1,AC50,[1],"1.26 µM [falling, full curve, poor fit]"
CCc1ccc(-c2cn(-c3nc(C)cc(C)n3)c(=N)o2)cc1,AC50,[1],"14.6 µM [rising, partial curve]"
Clc1ccc(CSc2nnc(-c3ccccn3)n2Cc2ccco2)c(Cl)c1,AC50,[1],"1.78 µM [falling, partial curve, poor fit]"
Cc1cc(N2CCN(c3ccc(C(F)(F)F)cc3[N+](=O)[O-])CC2)c2ccccc2n1,AC50,[1],"14.1 µM [falling, single point]"
Cc1ccc(S(=O)(=O)NCCc2csc3nc(-c4ccccc4C)nn23)cc1,AC50,[1],"22.4 µM [falling, single point]"
COc1ccc(Nc2oc(-c3ccccc3)nc2C#N)cc1,AC50,[1],"35.5 µM [rising, single point]"
Cn1cc([N+](=O)[O-])c(C(=O)Nc2ccn(Cc3c(F)c(F)cc(F)c3F)n2)n1,AC50,[1],"1.84 µM [falling, partial curve, poor fit]"
O=S(=O)(c1cccs1)N1CCN(CC(O)COc2cc(Cl)ccc2Cl)CC1 (configuration not stated),AC50,[1],"35.5 µM [falling, single point]"
COc1ccc(OC)c(NC(=S)NCc2cccs2)c1,AC50,[1],"1.64 µM [rising, full curve, poor fit]"
CCOc1ccc(CSC2=NCCN2)cc1Cl,AC50,[1],"15.8 µM [falling, single point]"
Cc1cccn2c(=O)c3cc(S(=O)(=O)c4ccccc4)c(=N)n(Cc4ccco4)c3nc12,AC50,[1],"14.1 µM [falling, partial curve]"
CSc1nc(O)c(C(c2cccc([N+](=O)[O-])c2)c2c(O)nc(SC)[nH]c2=O)c(=O)[nH]1,AC50,[1],"0.0891 µM [rising, full curve, poor fit]"
COc1ccc(CNCCC2(C(C)C)CCOC(C)(C)C2)cc1 (configuration not stated),AC50,[1],"3.16 µM [falling, full curve, poor fit]"
CNc1nc(-c2ccc(Cl)cc2)cs1,AC50,[1],"1.26 µM [rising, partial curve]"
CCc1c(C)nc2cc(-c3ccc(OC)c(OC)c3)nn2c1N1CCC(C)CC1,AC50,[1],"3.98 µM [rising, full curve, poor fit]"
CC1=C(C)CC2C(=O)N(Cc3ccccc3)C(=O)C2C1 (configuration not stated),AC50,[1],"1.84 µM [rising, partial curve]"
Cn1c(SCC(=O)c2ccccc2)nnc1-c1ccccn1,AC50,[1],"35.5 µM [falling, single point]"

# Reformatted: entries from further up
smiles | measurement | setting | value
Cn1cc(CN2CCC(CO)CC2)c(-c2ccc(Oc3ccccc3)cc2)n1 | AC50 | [1] | 5.62 µM [rising, full curve]
O=C(Cc1ccccc1)NCC(=O)N/N=C/c1ccc([N+](=O)[O-])s1 | AC50 | [1] | 35.5 µM [falling, single point]
